Measured values as given in publication PMC7427987.
These are yes or no findings as the source states them, for the method shown. Binding seen in cells or lysates may run through a third protein. Some results given as binding are weak or reduced against the parent protein; the word gives no strength.

By UniProt entry, the sequences of proteins in these tests, tags left out.
UniProt P01106: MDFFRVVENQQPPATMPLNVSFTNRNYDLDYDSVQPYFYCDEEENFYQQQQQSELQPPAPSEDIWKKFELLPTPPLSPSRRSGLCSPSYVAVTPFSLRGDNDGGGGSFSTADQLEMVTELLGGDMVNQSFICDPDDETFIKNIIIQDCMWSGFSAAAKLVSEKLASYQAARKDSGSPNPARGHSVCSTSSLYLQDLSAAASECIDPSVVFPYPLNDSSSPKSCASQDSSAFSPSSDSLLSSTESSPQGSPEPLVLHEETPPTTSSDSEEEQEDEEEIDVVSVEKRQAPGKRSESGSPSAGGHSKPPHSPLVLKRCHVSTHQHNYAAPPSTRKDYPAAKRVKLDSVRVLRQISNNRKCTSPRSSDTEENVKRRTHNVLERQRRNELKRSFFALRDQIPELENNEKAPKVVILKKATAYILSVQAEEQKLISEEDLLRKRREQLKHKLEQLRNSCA
UniProt Q16665: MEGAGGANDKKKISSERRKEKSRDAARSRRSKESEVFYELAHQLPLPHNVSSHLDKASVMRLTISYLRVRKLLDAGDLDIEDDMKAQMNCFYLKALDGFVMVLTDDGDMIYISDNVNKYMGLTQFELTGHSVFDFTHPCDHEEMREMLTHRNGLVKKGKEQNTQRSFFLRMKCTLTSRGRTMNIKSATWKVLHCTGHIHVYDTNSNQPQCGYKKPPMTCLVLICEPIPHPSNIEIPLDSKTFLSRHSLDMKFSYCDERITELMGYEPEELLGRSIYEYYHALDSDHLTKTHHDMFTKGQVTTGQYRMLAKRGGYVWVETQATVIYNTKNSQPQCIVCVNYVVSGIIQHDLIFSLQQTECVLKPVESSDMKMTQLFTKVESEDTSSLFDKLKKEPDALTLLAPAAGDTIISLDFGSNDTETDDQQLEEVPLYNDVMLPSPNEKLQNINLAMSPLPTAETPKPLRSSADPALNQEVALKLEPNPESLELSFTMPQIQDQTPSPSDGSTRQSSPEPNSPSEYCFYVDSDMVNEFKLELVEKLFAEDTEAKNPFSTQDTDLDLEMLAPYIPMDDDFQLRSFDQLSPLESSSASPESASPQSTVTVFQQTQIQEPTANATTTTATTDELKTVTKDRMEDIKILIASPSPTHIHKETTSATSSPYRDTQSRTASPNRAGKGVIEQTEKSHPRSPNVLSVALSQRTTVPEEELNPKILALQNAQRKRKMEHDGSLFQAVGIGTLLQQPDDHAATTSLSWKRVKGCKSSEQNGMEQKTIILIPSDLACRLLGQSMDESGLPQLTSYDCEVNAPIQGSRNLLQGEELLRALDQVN

Target: T1, FBX8 (human (endogenous in HT29)) (UniProt Q9NRD0)
T1 sequence: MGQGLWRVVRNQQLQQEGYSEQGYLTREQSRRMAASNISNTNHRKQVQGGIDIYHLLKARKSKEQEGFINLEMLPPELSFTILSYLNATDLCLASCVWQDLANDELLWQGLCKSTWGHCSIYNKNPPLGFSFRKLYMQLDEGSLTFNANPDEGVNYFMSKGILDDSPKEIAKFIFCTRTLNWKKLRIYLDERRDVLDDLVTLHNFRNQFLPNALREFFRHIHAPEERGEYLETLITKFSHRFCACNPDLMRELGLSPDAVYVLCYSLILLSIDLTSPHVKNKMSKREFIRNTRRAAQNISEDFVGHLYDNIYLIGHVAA
Assay: co-IP; extracts of SW620, SW480 and HT29 cells precleared with IgG and protein A+G agarose (2 h, 4 °C); primary antibodies against FBX8, HIF-1α, CDK4 and C-Myc overnight at 4 °C; western blot

Row | Substance | binding
1 | C-Myc (from UniProt P01106 1-454) | binds
2 | HIF-1α (from UniProt Q16665 1-826) | binds
